The target in one assay is T1, FLAG-EVL (mouse) (UniProt P70429).
T1 sequence: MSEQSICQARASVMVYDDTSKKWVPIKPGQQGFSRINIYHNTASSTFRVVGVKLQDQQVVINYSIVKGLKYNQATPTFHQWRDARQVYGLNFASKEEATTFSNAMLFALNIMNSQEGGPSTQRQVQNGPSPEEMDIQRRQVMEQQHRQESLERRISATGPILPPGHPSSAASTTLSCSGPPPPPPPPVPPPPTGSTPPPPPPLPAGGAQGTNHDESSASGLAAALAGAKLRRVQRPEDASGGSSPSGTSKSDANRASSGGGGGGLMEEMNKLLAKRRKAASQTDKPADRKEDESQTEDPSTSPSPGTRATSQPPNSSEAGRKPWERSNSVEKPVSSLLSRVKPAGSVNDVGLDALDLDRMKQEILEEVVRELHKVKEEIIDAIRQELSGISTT
The experiment in a line: co-IP; MV^D7 cells co-transfected with a FLAG-tagged and an EGFP-tagged protein; FLAG-tagged protein precipitated with Anti-DYKDDDK magnetic beads for 2 h; EGFP-tagged partner detected by western blot; lysis buffer 1% IGEPAL CA-630, 200 mM NaCl, 50 mM TRIS pH 7.5. For orientation: In western blotting, separated proteins are transferred to a membrane and probed.

The chains behind the UniProt entries cited, without tags or fusion partners. Where a name states a change or a piece, a line headed by the entry shows the natural chain unless it says otherwise.
UniProt P70460: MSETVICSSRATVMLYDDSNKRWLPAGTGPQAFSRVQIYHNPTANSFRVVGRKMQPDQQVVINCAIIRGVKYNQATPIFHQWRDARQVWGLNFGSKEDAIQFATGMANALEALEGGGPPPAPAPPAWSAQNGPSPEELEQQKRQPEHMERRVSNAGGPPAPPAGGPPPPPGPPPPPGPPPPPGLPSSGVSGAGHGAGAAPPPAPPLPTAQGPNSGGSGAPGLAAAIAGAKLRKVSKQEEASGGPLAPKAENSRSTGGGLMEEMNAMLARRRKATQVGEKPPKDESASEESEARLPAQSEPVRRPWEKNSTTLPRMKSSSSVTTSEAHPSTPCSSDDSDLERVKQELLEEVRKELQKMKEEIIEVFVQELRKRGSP

For a further assay, the target named is FLAG-VASP^WT (mouse) (UniProt P70460). The description is as above.
The next assay deals with T2, EGFP-EVL (mouse) (UniProt P70429).
T2 sequence: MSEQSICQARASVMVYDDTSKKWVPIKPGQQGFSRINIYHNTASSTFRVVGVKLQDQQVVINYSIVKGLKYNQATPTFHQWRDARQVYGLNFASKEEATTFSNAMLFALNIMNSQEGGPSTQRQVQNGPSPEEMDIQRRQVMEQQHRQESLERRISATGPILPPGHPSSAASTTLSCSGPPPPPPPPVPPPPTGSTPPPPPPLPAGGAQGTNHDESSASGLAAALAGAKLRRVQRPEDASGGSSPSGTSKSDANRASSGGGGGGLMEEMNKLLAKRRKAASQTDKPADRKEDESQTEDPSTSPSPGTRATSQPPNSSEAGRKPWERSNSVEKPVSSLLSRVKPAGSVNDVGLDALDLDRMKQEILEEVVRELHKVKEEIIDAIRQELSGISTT
Kind of assay: co-IP; MV^D7 cells co-transfected with a FLAG-tagged and an EGFP-tagged protein; EGFP-tagged protein precipitated with rabbit polyclonal anti-GFP, Protein G Dynabeads, 4°C; FLAG-tagged partner detected by western blot; lysis buffer 1% IGEPAL CA-630, 200 mM NaCl, 50 mM TRIS pH 7.5.

Binding data for two molecules are collected here from paper PMC4721544.

Results are given in words; binding and its absence hold for the method and conditions named. In cells and extracts the contact can be indirect. Some binding calls cover weakened binding; strength is not graded here. For part of these data: Where a sequence is shown, tags or fusion partners need not be part of it.

Take “EGFP-EVH2(VASP) (from UniProt P70460 221-375) (domain or fragment)”: the binding entry in the assay with FLAG-EVL (mouse) and with FLAG-VASP^WT (mouse) was “binds” throughout.

B1: FLAG-EVL (protein, UniProt P70429-2 1-393)
chain: MSEQSICQARASVMVYDDTSKKWVPIKPGQQGFSRINIYHNTASSTFRVVGVKLQDQQVVINYSIVKGLKYNQATPTFHQWRDARQVYGLNFASKEEATTFSNAMLFALNIMNSQEGGPSTQRQVQNGPSPEEMDIQRRQVMEQQHRQESLERRISATGPILPPGHPSSAASTTLSCSGPPPPPPPPVPPPPTGSTPPPPPPLPAGGAQGTNHDESSASGLAAALAGAKLRRVQRPEDASGGSSPSGTSKSDANRASSGGGGGGLMEEMNKLLAKRRKAASQTDKPADRKEDESQTEDPSTSPSPGTRATSQPPNSSEAGRKPWERSNSVEKPVSSLLSRVKPAGSVNDVGLDALDLDRMKQEILEEVVRELHKVKEEIIDAIRQELSGISTT
For the molecule B1, the binding entry in the assay with EGFP-EVL (mouse) was “binds”.
